Measured values published in PubChem BioAssay AID1487 (National Center for Advancing Translational Sciences (NCATS), 2009).
This is one part of the list. The main result of the screen is listed elsewhere. These columns were measured beside it and carry no call. The list favours compounds with an active or inconclusive main result. Potencies come from curve fits of mixed quality, noted in brackets.

Test: qHTS Assay for Modulators of Lamin A Splicing
Settings: HeLa LMNA splicing GFP/RFP minigene ratio, 48 h
Procedure, shortened: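 S3 HeLa stable clones carrying a lamin A-EGFP splicing minigene plus DsRed2 were seeded at 600 cells/well in Opti-MEM with 2% FBS, pin-dosed and incubated 48 h at 37°C. Acumen cytometry (488 nm) gave the GFP/RFP total-intensity ratio.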

[1] = measured here: RFP viability control channel
[2] = measured here: GFP splicing reporter channel

| Structure (SMILES) | AC50 [1] | AC50 [2] |
| --- | --- | --- |
| Cc1ccc(NC(=O)c2ccc(CSc3nccc(C)n3)cc2)cc1 | 15.8 µM [rising, single point] | – |
| Cc1ccsc1/C=C(\C(=O)c1ccc(OC(C)C)cc1)c1nc2ccccc2o1 | 11.2 µM [rising, partial curve] | – |
| Cc1cc(C)c(C#N)c(SCc2nnc(-c3ccccc3)o2)n1 | 35.5 µM [rising, single point] | 14.1 µM [rising, single point] |
| Cc1nc(N2CCOCC2)c2c(C(=O)N3CCN(c4cccc(C)c4C)CC3)c(C)oc2n1 | 0.1 µM [rising, full curve, poor fit] | – |
| CCOc1ccc(-c2cn3c(n2)sc2cc(C(=O)NC4CCCc5ccccc54)ccc23)cc1 (stereo not drawn) | 11.2 µM [rising, partial curve] | 1.78 µM [rising, partial curve] |
| CCOCCn1c(CN2CCC(Cc3ccccc3)CC2)nc2c1c(=O)n(C)c(=O)n2C | 3.16 µM [rising, full curve, poor fit] | 8.91 µM [rising, partial curve] |
| Cc1ccc(NC(=O)CC(C)S(=O)(=O)c2ccc3c(c2)NC(=O)CO3)cc1C (stereo not drawn) | 8.91 µM [rising, partial curve] | – |
| Cc1ccccc1Nc1nc(Nc2ccccc2C)nc(SC2=NCCS2)n1 | 35.5 µM [rising, single point] | – |
| COc1ccc(/C=C/C(=O)c2ccc(O)cc2O)cc1 | 35.5 µM [falling, single point] | 25.1 µM [falling, single point] |
| COc1ccc(N(Cc2cccs2)C(=O)COc2cc(C)c(Cl)c(C)c2)cc1 | 12.6 µM [rising, partial curve] | – |
| CCCN(c1ccc(C(C)C)cc1)S(=O)(=O)c1c(C)[nH]c(=O)[nH]c1=O | – | 14.1 µM [rising, single point] |
| CCOC(=O)/C(=N\Nc1cc(Cl)ccc1Cl)N1CCN(CC)CC1 | 11.2 µM [falling, single point] | 15.8 µM [falling, partial curve] |
| COC(=O)[C@@H]1CC[C@H](C)[C@@H](c2ccc(C)cc2)N1C(=O)c1ccc(/C=N/OC[C@@H](O)[C@H]2O[C@@H]3OC(C)(C)O[C@@H]3[C@H]2O)cc1 | 10 µM [rising, partial curve, poor fit] | 20 µM [rising, single point] |
| Cc1cc(N2CCN(C(=O)c3ccco3)CC2)n2nc(-c3cccc(Cl)c3)cc2n1 | 12.6 µM [rising, partial curve] | 11.2 µM [rising, partial curve] |
| Cc1ccc(C2=NN(C(=O)CSc3nc(N)cc(N)n3)C(c3ccco3)C2)cc1 (stereo not drawn) | 35.5 µM [rising, single point] | 35.5 µM [rising, single point] |
| COCc1cc(CN2CCN(Cc3ccsc3)C(CCO)C2)ccc1OC (stereo not drawn) | – | 0.0141 µM [rising, full curve, poor fit] |
| Cc1ccccc1C(=O)NNC(=S)Nc1cccc(C(F)(F)F)c1 | 1.78 µM [rising, partial curve] | 3.98 µM [rising, full curve, poor fit] |
| COc1ccccc1Sc1nc(-c2ccccn2)ncc1OC | 2.82 µM [falling, full curve, poor fit] | 6.31 µM [falling, full curve] |
| O=C(NCc1nnc(SCc2ccc(C(F)(F)F)cc2)n1-c1ccccc1)C12CC3CC(CC(C3)C1)C2 | 28.2 µM [falling, single point] | 25.1 µM [falling, single point] |
| CC1=NN(C(=O)c2ccc(Cn3cc(Br)c([N+](=O)[O-])n3)o2)C(O)(C(F)(F)F)C1 (stereo not drawn) | – | 20 µM [rising, single point] |
| O=C(CSc1ccc(Cl)cc1)Nc1ccccc1N1CCN(C(=O)c2ccc(Cl)cc2)CC1 | 14.1 µM [rising, partial curve] | 20 µM [rising, partial curve, poor fit] |
| O/N=C/c1ccccc1OCc1ccccc1F | 35.5 µM [rising, single point] | 20 µM [rising, partial curve] |
| Oc1ccc(Br)cc1C=Nc1ccc(Cl)cc1 | 2.82 µM [falling, single point] | – |
| COc1ccc(N(C)C(=O)Cc2c(C(=O)O)[nH]c3ccccc23)cc1 | 10 µM [rising, single point] | 20 µM [rising, partial curve, poor fit] |
| COc1ccc(OC)c(NC(=O)Cn2cnc3c(oc4ccccc43)c2=O)c1 | – | 35.5 µM [falling, single point] |
| CC(=O)Nc1cccc(OCC(O)Cn2c(C)nc3ccccc32)c1 (stereo not drawn) | 35.5 µM [rising, single point] | – |
| O=C(c1ccc(Br)cc1)c1cc([N+](=O)[O-])ccc1N1CCCCC1 | 0.891 µM [falling, full curve] | 0.891 µM [falling, full curve] |

| Structure (SMILES) | AC50 [1] | AC50 [2] |
| --- | --- | --- |
| Cc1ccc(CNC(=O)Cn2ccn(-c3ccc(C)c(C)c3)c(=O)c2=O)cc1 | 35.5 µM [falling, single point] | 3.16 µM [falling, partial curve, poor fit] |
| C1COC(NC(C2CC2)C2CC2)=N1 | – | 35.5 µM [falling, single point] |
| COc1ccc(-c2csc(NC(=O)C3CCCO3)n2)cc1 (stereo not drawn) | 6.31 µM [rising, full curve] | 6.31 µM [rising, full curve] |
| O=C(Cc1cccc2ccccc12)N/N=C/c1ccc(OC(=O)/C=C/c2ccco2)cc1 | 20 µM [rising, single point] | – |
| CCn1nc(C)c(/C=C2\CCCC3=C2OC(N)=C(C#N)C3c2c(C)nn(CC)c2C)c1C (stereo not drawn) | 3.16 µM [rising, full curve] | – |
| COc1ccc(CCn2c(N)c(C(=O)NCc3ccco3)c3nc4ccccc4nc32)cc1 | 35.5 µM [rising, single point] | – |
| O=C(NCc1ccccc1)c1nc(-c2cccs2)no1 | 5.01 µM [rising, single point] | 3.98 µM [rising, partial curve] |
| CCc1ccc(S(=O)(=O)Nc2ccc(-c3ccc(N4CCCCCC4)nn3)cc2)cc1 | 0.0398 µM [falling, partial curve, poor fit] | 0.0501 µM [falling, full curve, poor fit] |
| Cn1c(=O)[nH]c2ncn(C)c2c1=O | 0.00447 µM [falling, full curve, poor fit] | – |
| Cc1ccc(-c2csc(NC(=O)C3CCN(S(=O)(=O)c4cccs4)CC3)n2)cc1 | 0.708 µM [rising, full curve] | – |
| Clc1ccc2c(N/N=C/c3ccc(Br)cc3)ccnc2c1 | 31.6 µM [rising, single point] | 14.1 µM [rising, single point] |
| CCn1ncc(C2=NOC(C(=O)NCc3ccccc3)C2)c1C (stereo not drawn) | 14.1 µM [rising, partial curve] | – |
| COc1ccccc1OCCNS(=O)(=O)c1ccc2oc3ccccc3c2c1 | 35.5 µM [rising, single point] | – |
| CCCc1nc2sc3c(SCC(=O)NCc4ccco4)ncnc3c2c2c1CCC2 | 20 µM [rising, single point] | – |
| CCC1CCCCN1CCCNC(=O)CN1C(=O)CSc2ccc(S(=O)(=O)N3CCC(C)CC3)cc21 (stereo not drawn) | 0.0282 µM [rising, full curve, poor fit] | – |
| COc1cccc(NC(=O)c2ccncc2)c1 | – | 12.6 µM [rising, partial curve] |
| O=C(Nc1cccc(Cl)c1)Nc1ccccc1OCc1cc(=O)n2ccccc2n1 | 1.26 µM [rising, full curve] | 1.41 µM [rising, partial curve] |
| CN1C(=O)CC[C@@H]1c1cccnc1 | 0.000891 µM [falling, full curve, poor fit] | 0.000891 µM [falling, full curve, poor fit] |
| O=C(O)C1C2C=CC(O2)C1C(=O)NCCc1cccc(Cl)c1 (stereo not drawn) | 4.47 µM [falling, full curve, poor fit] | 2.51 µM [falling, full curve, poor fit] |
| Cc1ccc(-c2nnc(-c3ccc(Br)cc3)o2)o1 | 12.6 µM [rising, single point] | – |
| CCOC(=O)Nc1ccc2c(c1)N(C(=O)OC)c1ccccc1CC2 | 35.5 µM [falling, single point] | 25.1 µM [falling, single point] |
| Cc1ccccc1Nc1nc(Cl)c(C=O)s1 | 14.1 µM [rising, single point] | – |
| COc1cc([N+](=O)[O-])cc(/C=N/NC(=O)C(C)Nc2cccc(C)c2)c1O (stereo not drawn) | 25.1 µM [rising, single point] | 31.6 µM [rising, single point] |
| O=C(NCCc1ccccn1)c1cc(-c2ccc(Cl)c(Cl)c2Cl)nc2ccccc12 | 17.8 µM [rising, partial curve] | – |
| Cc1cccc(N2CCN(C(=O)CC(NC(=O)c3ccccc3Cl)c3ccccc3)CC2)c1C (stereo not drawn) | 31.6 µM [rising, single point] | – |
| CC(=O)C1=C(c2ccc(Cl)c(Cl)c2)N(C(C)=O)n2c(C)nnc2S1 | 11.2 µM [rising, partial curve, poor fit] | – |

Compounds listed so far with a COOH group (two):

| Structure (SMILES) | AC50 [1] | AC50 [2] |
| --- | --- | --- |
| COc1ccc(N(C)C(=O)Cc2c(C(=O)O)[nH]c3ccccc23)cc1 | 10 µM [rising, single point] | 20 µM [rising, partial curve, poor fit] |
| O=C(O)C1C2C=CC(O2)C1C(=O)NCCc1cccc(Cl)c1 (stereo not drawn) | 4.47 µM [falling, full curve, poor fit] | 2.51 µM [falling, full curve, poor fit] |
